Tests used:
Set-up in all cases: species or system human
primary AML samples = test: HLA class I ligandome analysis (W6/32 immunoaffinity purification, LC-MS/MS) of primary AML samples; details: for Number of positive AMLs: HLA class I ligandome, 15 AML samples; for AML-exclusivity with regard to HLA presentation: versus PBMC and BMNC of healthy donors
PBMC of healthy donors = test: HLA class I ligandome analysis (LC-MS/MS) of healthy donor PBMC; details: HLA class I ligandome, 30 PBMC samples; first figure of the cell
BMNC of healthy donors = test: HLA class I ligandome analysis (LC-MS/MS) of healthy donor BMNC; details: HLA class I ligandome, 5 BMNC samples; second figure of the cell
[1] = tested on: cancer tissues in comparison to non-cancerous tissues and organs; test: Presentation profile / over-presentation by label-free LC-MS (XPRESIDENT), tumor versus normal tissues, other proliferative diseases; details: other proliferative diseases / organs (other than AML) that over- or exclusively present the peptide; Table 5

| Substance | Number of positive AMLs (primary AML samples) | Number of positive healthy donors (PBMC) (PBMC of healthy donors) | Number of positive healthy donors (BMNC) (BMNC of healthy donors) | Proliferative disease and location thereof [1] | AML-exclusivity with regard to HLA presentation (primary AML samples) |
| --- | --- | --- | --- | --- | --- |
| 445 (SQLTTLSFY; listed as Homo sapiens) [compound 445] | 0 | 1 | 0 | lung, non-small cell lung carcinoma, omentum, adenocarcinoma | – |
| 329 (HQLSLRTV; listed as Homo sapiens) [compound 329] | 0 | 2 | 0 | stomach, adenocarcinoma, colon, non-Hodgkin's; lymphoma | – |
| 446 (KMQEKKKLQ; listed as Homo sapiens) [compound 446] | 1 | 0/0 | 0/0 | liver, hepatocellular carcinoma, lung, large cell carcinoma | – |
| 348 (NPDELKTTV; listed as Homo sapiens) [compound 348] | 0 | 1 | 0 | lung, non-small cell lung carcinoma, testis, seminoma | – |
| 407 (DNTGITTVSK; listed as Homo sapiens) [compound 407] | 0 | 0 | 1 | spleen, chronic myeloid leukemia | – |
| 411 (FEQVMRIGL; listed as Homo sapiens) [compound 411] | 1 | 0/0 | 0/0 | spleen, chronic myeloid leukemia | – |
| 390 (KEIDKNDHL; listed as Homo sapiens) [compound 390] | 0 | 1 | 0 | lymph node, carcinoma of breast | – |
| 335 (VEAKFINY; listed as Homo sapiens) [compound 335] | 1 | 0/0 | 0/0 | stomach, adenocarcinoma, colon, non-Hodgkin's; lymphoma | – |
| 398 (VEVPETPKA; listed as Homo sapiens) [compound 398] | 1 | 2 | 1 | lymph node, carcinoma of breast | – |
| 395 (SESGAGLTRF; listed as Homo sapiens) [compound 395] | 1 | 0/0 | 0/0 | lymph node, carcinoma of breast | – |
| 326 (DENEHQLSL; listed as Homo sapiens) [compound 326] | 3 | 1 | 0 | stomach, adenocarcinoma, colon, non-Hodgkin's; lymphoma | – |
| 340 (GYVPRTAL; listed as Homo sapiens) [compound 340] | 0 | 1 | 0 | lung, non-small cell lung carcinoma, schwannoma | – |
| 328 (GFEITPPVVLR; listed as Homo sapiens) [compound 328] | 0 | 4 | 1 | stomach, adenocarcinoma, colon, non-Hodgkin's; lymphoma | – |
| 414 (IVRFPTDQL; listed as Homo sapiens) [compound 414] | 1 | 0 | 1 | spleen, chronic myeloid leukemia | – |
| 424 (VLGPTAMRK; listed as Homo sapiens) [compound 424] | 0 | 0 | 1 | spleen, chronic myeloid leukemia | – |
| 431 (GQFSKPFSF; listed as Homo sapiens) [compound 431] | 0 | 1 | 0 | stomach, metastatic, ovary, granulosa cell tumor | – |

| Substance | Number of positive AMLs (primary AML samples) | Number of positive healthy donors (PBMC) (PBMC of healthy donors) | Number of positive healthy donors (BMNC) (BMNC of healthy donors) | Proliferative disease and location thereof [1] | AML-exclusivity with regard to HLA presentation (primary AML samples) |
| --- | --- | --- | --- | --- | --- |
| 331 (SIRDTPAKN; listed as Homo sapiens) [compound 331] | 1 | 0/0 | 0/0 | stomach, adenocarcinoma, lymph node, non- Hodgkin's lymphoma | – |
| 356 (KLLEYIEEI; listed as Homo sapiens) [compound 356] | 1 | 0/0 | 0/0 | stomach, adenocarcinoma, rectum, adenocarcinoma | – |
| 372 (FEEHNSMNEL; listed as Homo sapiens) [compound 372] | 1 | 1 | 0 | colon or rectum, rectum, adenocarcinoma | – |
| 425 (AELRNATAA; listed as Homo sapiens) [compound 425] | 0 | 1 | 0 | pancreas, adenocarcinoma, breast, carcinoma | – |
| 391 (KVSKASGVSK; listed as Homo sapiens) [compound 391] | 1 | 2 | 0 | lymph node, carcinoma of breast | – |
| 338 (SELKMMTQL; listed as Homo sapiens) [compound 338] | 1 | 0/0 | 0/0 | lymph node, non-Hodgkin's lymphoma | AML-exclusivity |
| 379 (KDITMKNLV; listed as Homo sapiens) [compound 379] | 0 | 1 | 0 | kidney, clear cell renal cell carcinoma, colon, non- Hodgkin's lymphoma | – |
| 383 (VQKLQNII; listed as Homo sapiens) [compound 383] | 0 | 1 | 0 | colon or rectum, prostate, benign nodular; hyperplasia | – |
| 405 (AQISLPRI; listed as Homo sapiens) [compound 405] | 0 | 0 | 1 | spleen, chronic myeloid leukemia | – |
| 402 (LEADPFLKY; listed as Homo sapiens) [compound 402] | 1 | 0/0 | 0/0 | lung, non-small cell lung carcinoma, omentum, adenocarcinoma | AML-exclusivity |
| 344 (SRHPLSPGF; listed as Homo sapiens) [compound 344] | 1 | 0/0 | 0/0 | lung, non-small cell lung carcinoma, schwannoma | – |
| 426 (DVPDGTLVTVM; listed as Homo sapiens) [compound 426] | 3 | 1 | 0 | pancreas, adenocarcinoma, breast, carcinoma | – |
| 341 (KEKDPQPQQL; listed as Homo sapiens) [compound 341] | 1 | 0/0 | 0/0 | lung, non-small cell lung carcinoma, schwannoma | – |
| 337 (YEGSPIKVTL; listed as Homo sapiens) [compound 337] | 3 | 3 | 0 | stomach, adenocarcinoma, colon, non-Hodgkin's; lymphoma | – |
| 396 (SMMQTLLTV; listed as Homo sapiens) [compound 396] | 0 | 1 | 0 | lymph node, carcinoma of breast | – |
| 336 (YEGSPIKV; listed as Homo sapiens) [compound 336] | 1 | 0/0 | 0/0 | stomach, adenocarcinoma, colon, non-Hodgkin's; lymphoma | – |
